B1: human tRNA-Pro; a variant is named by its letters at N, in order (parent)
chain: GGCTCGTTGGTCTAGNGGTATGATTCTCGCTTAGGGTGCGAGAGGTCCCGGGTTCNNATCCCGGACGAGCCC

Single values of this data set are uncertain.

The data set covers variants of B1. The experiment in a line: tRNA 5' processing efficiency (processed reads / all reads, maximum-likelihood estimate) (fraction); higher = more efficient 5' processing. To be noted: HEK293T; construct: CMV Pol-II promoter ((+)CMV library, decapped).
Turning to GGCTCGTTGGTCTAGTGGTATGATTCTCGCTTAGGGTGCGAGAGGTCCCGGGTTTGAACCCCGGACGAGCCC [TGA C55T T59C], the “tRNA 5' processing efficiency” value is 0.25.

Take GGCTCGTTGGTCTAGGGGGATGATTCTCGCTTAGGGTGCGAGAGGTCCCGGGTTCCCATCCCGGACGAGCCC [GCC T19G]: the “tRNA 5' processing efficiency” value is 0.33.

For GGCTCGTTGGTCTAGCGGTATGATTCTCGCTTAGGGTGCGAGAGGTCCCGGGTGCATATCCCGGACGAGCCC [CAT T54G], the “tRNA 5' processing efficiency” value is 0.5.

As to GGCTCGTTGGTCTAGGGGTATGATTCTCGCTTAGGGTGCGAGAGGTCCCGGGTATCACTCCCGGACGAGCCC [GCA T54A C55T A58C], the “tRNA 5' processing efficiency” value is 0.25.

As for GGCTCGTTGGTCTAGGGGTTTGATTCTCGCTTAGGGTGCGAGAGGTCCCGGGCTCCAATCCCGGACGAGCCC [GCA A20T T53C], the “tRNA 5' processing efficiency” value is 0.33.

Consider GGCTCGTTAGTCTATGTGTATGATTCTCGCTTAGGGTGCGAGAGGTCCCGGGTTCCCGTCCCGGACGAGCCC [GCC G9A G15T G17T A58G], for which the “tRNA 5' processing efficiency” value is 0.33.

Take GGCTCGTTGGTCTAGTAATATGATTCTCGCTTAGGGTGCGAGAGGTCCCGGGTTTCAATCCCGGACGAGCCC [TCA G17A G18A C55T]: the “tRNA 5' processing efficiency” value is 0.13.

On to GGCTCGTTGGTCTATGGGTATGATTCTCGCTTAGGGTGCGAGAGGTCCCGGGTTCCATTCCCGGACGAGCCC [GCA G15T A58T], for which the “tRNA 5' processing efficiency” value is 0.25.

With GGCTCGTTTGTCTAGGGGAATGATTCTCGCTTAGGGTGCGAGAGGTCCCGGGTTGCAATCCCGGACGAGCCC [GCA G9T T19A C55G], the “tRNA 5' processing efficiency” value was 0.11.

As to GGCTCGTTGGTCTAGAGGAATGATTCTCGCTTAGGGTGCGAGAGGTCCCGGGGTCCAATCCCGGACGAGCCC [ACA T19A T53G], the “tRNA 5' processing efficiency” value was 0.25.

Consider GGCTCGTGTGTCTAATGGTATGATTCTCGCTTAGGGTGCGAGAGGTCCCGGGTTTCAACCCCGGACGAGCCC [TCA T8G G9T G15A C55T T59C], for which the “tRNA 5' processing efficiency” value was 0.33.

As for GGCTCGTTGGTCTCGGGGTATGATTCTCGCTTAGGGTGCGAGAGGTCCCGGGATCGATGCCCGGACGAGCCC [GGA A14C T53A A58T T59G], the “tRNA 5' processing efficiency” value is 0.2.

Turning to GGCTCGTAGGTCTAGGGGTATGATTCTCGCTTAGGGTGCGAGAGGTCCCGGGTTTCAATCCCGGACGAGCCC [GCA T8A C55T], the “tRNA 5' processing efficiency” value is 0.4.

With GGCTCGTGGGTCTAGGGGTTTGATTCTCGCTTAGGGTGCGAGAGGTCCCGGGTTAATATCCCGGACGAGCCC [GAT T8G A20T C55A], the “tRNA 5' processing efficiency” value is 0.25.

As for GGCTCGTTGGTCTAGGGGGATGATTCTCGCTTAGGGTGCGAGAGGTCCCGGGTTCATCCCCCGGACGAGCCC [GAT T19G A58C T59C], the “tRNA 5' processing efficiency” value is 0.25.

On to GGCTCGTTGGTCTAGGGGTATGATTCTCGCTTAGGGTGCGAGAGGTCCCGGGCTCCAATCCCGGACGAGCCC [GCA T53C], for which the “tRNA 5' processing efficiency” value was 0.25.

For the variant GGCTCGTTGGTCTAGAGGTATGATTCTCGCTTAGGGTGCGAGAGGTCCCGGGTTTCAACCCCGGACGAGCCC [ACA C55T T59C], the “tRNA 5' processing efficiency” value is 0.2.

With GGCTCGTTAGTCTGGAGGTGTGATTCTCGCTTAGGGTGCGAGAGGTCCCGGGGTCCACTCCCGGACGAGCCC [ACA G9A A14G A20G T53G A58C], the “tRNA 5' processing efficiency” value was 0.82.

For the variant GGCTCGTCGGTCTAGGGGCATGATTCTCGCTTAGGGTGCGAGAGGTCCCGGGTTCATATCCCGGACGAGCCC [GAT T8C T19C], the “tRNA 5' processing efficiency” value was 0.25.

Turning to GGCTCGTTGGTCTAGGGGCATGATTCTCGCTTAGGGTGCGAGAGGTCCCGGGGTCCAATCCCGGACGAGCCC [GCA T19C T53G], the “tRNA 5' processing efficiency” value was 0.2.

For the variant GGCTCGTTGGTCTAGGGGTATGATTCTCGCTTAGGGTGCGAGAGGTCCCGGGTTACAGTCCCGGACGAGCCC [GCA C55A A58G], the “tRNA 5' processing efficiency” value was 0.25.

For the variant GGCTCGTTGGTCTAGGGTTATGATTCTCGCTTAGGGTGCGAGAGGTCCCGGGTTCCATTCCCGGACGAGCCC [GCA G18T A58T], the “tRNA 5' processing efficiency” value is 0.25.

Consider GGCTCGTTGGTCTGGTGGTATGATTCTCGCTTAGGGTGCGAGAGGTCCCGGGTTCGAAACCCGGACGAGCCC [TGA A14G T59A], for which the “tRNA 5' processing efficiency” value is 0.33.

Take GGCTCGTTGGTCTAGTGATATGATTCTCGCTTAGGGTGCGAGAGGTCCCGGGTTCCAATCCCGGACGAGCCC [TCA G18A]: the “tRNA 5' processing efficiency” value was 0.33.

Consider GGCTCGTGGGTCTAGGGGTATGATTCTCGCTTAGGGTGCGAGAGGTCCCGGGTTTCAATCCCGGACGAGCCC [GCA T8G C55T], for which the “tRNA 5' processing efficiency” value was 0.25.

For GGCTCGTTGGTCTCAGGGTATGATTCTCGCTTAGGGTGCGAGAGGTCCCGGGTACGAATCCCGGACGAGCCC [GGA A14C G15A T54A], the “tRNA 5' processing efficiency” value is 0.11.

Consider GGCTCGTTGGTCTTGGGTTATGATTCTCGCTTAGGGTGCGAGAGGTCCCGGGTGCGAATCCCGGACGAGCCC [GGA A14T G18T T54G], for which the “tRNA 5' processing efficiency” value was 0.17.

Take GGCTCGTGGGTCTAGGGGTATGATTCTCGCTTAGGGTGCGAGAGGTCCCGAGTTCATGTCCCGGACGAGCCC [GAT T8G G51A A58G]: the “tRNA 5' processing efficiency” value was 0.2.

GGCTCGTTGGTCTGGGGCTATGATTCTCGCTTAGGGTGCGAGAGGTCCCGGGTTTCTATCCCGGACGAGCCC [GCT A14G G18C C55T]: the “tRNA 5' processing efficiency” value was 0.33.

In the case of GGCTCGTTGGTCTCGGTGTATGATTCTCGCTTAGGGTGCGAGAGGTCCCGGGTTCGAATCCCGGACGAGCCC [GGA A14C G17T], the “tRNA 5' processing efficiency” value was 0.57.

Turning to GGCTCGTTGGTCTAGAGATTTGATTCTCGCTTAGGGTGCGAGAGGTCCCGGGATCCAATCCCGGACGAGCCC [ACA G18A A20T T53A], the “tRNA 5' processing efficiency” value is 0.2.

Regarding GGCTCGTTAGTCTATGGGTATGATTCTCGCTTAGGGTGCGAGAGGTCCCGGGTTTCAATCCCGGACGAGCCC [GCA G9A G15T C55T], the “tRNA 5' processing efficiency” value was 0.2.

With GGCTCGTAGGTCTTGCGATATGATTCTCGCTTAGGGTGCGAGAGGTCCCGGGTCCCAGTCCCGGACGAGCCC [CCA T8A A14T G18A T54C A58G], the “tRNA 5' processing efficiency” value is 0.33.

As to GGCTCGTTGGTCTAGGGGTGTGATTCTCGCTTAGGGTGCGAGAGGTCCCGGGTTCCAATCCCGGACGAGCCC [GCA A20G], the “tRNA 5' processing efficiency” value was 0.33.

For GGCTCGTTGGTCTAGGGGTATGATTCTCGCTTAGGGTGCGAGAGGTCCCGGGCTCATATCCCGGACGAGCCC [GAT T53C], the “tRNA 5' processing efficiency” value was 0.25.

Regarding GGCTCGTGGGTCTAGGGGTATGATTCTCGCTTAGGGTGCGAGAGGTCCCGGGTCCATATCCCGGACGAGCCC [GAT T8G T54C], the “tRNA 5' processing efficiency” value is 0.17.

Turning to GGCTCGTTGGTCTAGGGGCATGATTCTCGCTTAGGGTGCGAGAGGTCCCGGGTTTATATCCCGGACGAGCCC [GAT T19C C55T], the “tRNA 5' processing efficiency” value is 0.25.

GGCTCGTTGGTCTAGGGGTATGATTCTCGCTTAGGGTGCGAGAGGTCCCGGGTTTCACTCCCGGACGAGCCC [GCA C55T A58C]: the “tRNA 5' processing efficiency” value was 0.2.

Values taken from the supplement of paper PMC6445147.
